PubChem BioAssay AID1259424, University of Nebraska Medical Center – 2018

Aim: 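Seek colon cancer survival genes behaving like KSR1, using a six-gene signature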 (primary screen)
Cells: human HCT116 colon cancer cells
Reagents: siRNA pool against human genes, 50 nM
Read-out: 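Six signature mRNAs by branched-DNA multiplex assay, scaled to two housekeeping genes and non-targeting median, log2; matched to mean KSR1 knockdown profile by Pearson correlation and euclidean distance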
Reading the numbers: mean correlation with KSR1 profile: higher = expression change more like KSR1 knockdown
The deposit covers about 14,000 reagents; this is a random part of them. 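Higher correlation or smaller distance means closer resemblance to KSR1 loss; control wells, including KSR1 knockdowns, recur on many plates.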 Reagents against one gene are numbered here. Further read-outs or replicates are left out here. The record does not give: the time to read-out.

mean correlation with KSR1 profile, by target and reagent
RAP2A (RAP2A, member of RAS oncogene family): #1 -0.135
KHDRBS3: #1 -0.781
NTSR2 (neurotensin receptor 2): #1 -0.218
OSMR (oncostatin M receptor): #1 -0.518
GNPAT (glyceronephosphate O-acyltransferase): #1 -0.133
USP12 (ubiquitin specific peptidase 12): #1 -0.455
FRRS1L (ferric chelate reductase 1 like): #1 -0.0629
METTL16 (methyltransferase 16, RNA N6-adenosine): #1 -0.385
SGPL1 (sphingosine-1-phosphate lyase 1): #1 0.192
TEX2 (testis expressed 2): #1 -0.0628
ENOSF1 (enolase superfamily member 1): #1 -0.186
CCDC25 (coiled-coil domain containing 25): #1 -0.703
GHRH (growth hormone releasing hormone): #1 0.29
PAQR5 (progestin and adipoQ receptor family member 5): #1 -0.441
ANKEF1 (ankyrin repeat and EF-hand domain containing 1): #1 0.64
TCF15 (transcription factor 15): #1 -0.227
ACSS3 (acyl-CoA synthetase short chain family member 3): #1 0.844
RETREG1 (reticulophagy regulator 1): #1 0.747
ANXA2P3 (annexin A2 pseudogene 3): #1 -0.809

In a second layout: 5 of the entries above
target,reagent,mean correlation with KSR1 profile
KHDRBS3,1,-0.781
NTSR2 (neurotensin receptor 2),1,-0.218
OSMR (oncostatin M receptor),1,-0.518
GNPAT (glyceronephosphate O-acyltransferase),1,-0.133
USP12 (ubiquitin specific peptidase 12),1,-0.455

The listing continues.
mean correlation with KSR1 profile, by target and reagent
TBX19 (T-box transcription factor 19): #1 0.47
SPART (spartin): #1 -0.0118
DCLK1 (doublecortin like kinase 1): #1 -0.41
ARIH2 (ariadne RBR E3 ubiquitin protein ligase 2): #1 -0.0493
KIFC2 (kinesin family member C2): #1 0.166
TMEM245 (transmembrane protein 245): #1 -0.376
RAB40B (RAB40B, member RAS oncogene family): #1 0.901
CHST10 (carbohydrate sulfotransferase 10): #1 0.739
LUC7L3 (LUC7 like 3 pre-mRNA splicing factor): #1 -0.783; #2 0.236
TLX2 (T cell leukemia homeobox 2): #1 -0.579
HSPA4L (heat shock protein family A (Hsp70) member 4 like): #1 0.469
IFI6 (interferon alpha inducible protein 6): #1 0.18
L3MBTL3 (L3MBTL histone methyl-lysine binding protein 3): #1 0.822
RADX (RPA1 related single stranded DNA binding protein, X-linked): #1 0.0923
